Experimental data taken from the supplement of paper PMC10849652.
The list shows a part of the results.

Sequences of proteins named here, by UniProt entry; tags and fusion partners are left off. A change or cut given only in a name is not applied to a line headed by its entry.
UniProt P12318: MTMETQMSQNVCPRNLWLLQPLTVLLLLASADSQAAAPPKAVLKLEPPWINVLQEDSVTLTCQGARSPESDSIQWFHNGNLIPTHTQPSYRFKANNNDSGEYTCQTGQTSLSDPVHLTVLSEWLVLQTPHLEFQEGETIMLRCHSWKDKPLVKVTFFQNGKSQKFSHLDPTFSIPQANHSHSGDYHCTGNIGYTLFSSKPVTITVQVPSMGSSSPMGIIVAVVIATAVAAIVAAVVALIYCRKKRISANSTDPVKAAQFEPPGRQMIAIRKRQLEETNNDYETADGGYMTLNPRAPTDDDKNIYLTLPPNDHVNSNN
UniProt Q9HA64: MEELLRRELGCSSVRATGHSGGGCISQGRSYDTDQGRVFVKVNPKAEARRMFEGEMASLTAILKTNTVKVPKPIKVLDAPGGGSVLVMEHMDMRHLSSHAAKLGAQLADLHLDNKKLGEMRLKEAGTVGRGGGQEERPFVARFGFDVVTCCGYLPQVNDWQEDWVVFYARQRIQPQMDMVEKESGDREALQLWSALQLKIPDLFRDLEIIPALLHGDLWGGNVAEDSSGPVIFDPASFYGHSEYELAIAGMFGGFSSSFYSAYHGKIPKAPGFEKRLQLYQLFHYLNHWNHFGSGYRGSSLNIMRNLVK
UniProt Q92562: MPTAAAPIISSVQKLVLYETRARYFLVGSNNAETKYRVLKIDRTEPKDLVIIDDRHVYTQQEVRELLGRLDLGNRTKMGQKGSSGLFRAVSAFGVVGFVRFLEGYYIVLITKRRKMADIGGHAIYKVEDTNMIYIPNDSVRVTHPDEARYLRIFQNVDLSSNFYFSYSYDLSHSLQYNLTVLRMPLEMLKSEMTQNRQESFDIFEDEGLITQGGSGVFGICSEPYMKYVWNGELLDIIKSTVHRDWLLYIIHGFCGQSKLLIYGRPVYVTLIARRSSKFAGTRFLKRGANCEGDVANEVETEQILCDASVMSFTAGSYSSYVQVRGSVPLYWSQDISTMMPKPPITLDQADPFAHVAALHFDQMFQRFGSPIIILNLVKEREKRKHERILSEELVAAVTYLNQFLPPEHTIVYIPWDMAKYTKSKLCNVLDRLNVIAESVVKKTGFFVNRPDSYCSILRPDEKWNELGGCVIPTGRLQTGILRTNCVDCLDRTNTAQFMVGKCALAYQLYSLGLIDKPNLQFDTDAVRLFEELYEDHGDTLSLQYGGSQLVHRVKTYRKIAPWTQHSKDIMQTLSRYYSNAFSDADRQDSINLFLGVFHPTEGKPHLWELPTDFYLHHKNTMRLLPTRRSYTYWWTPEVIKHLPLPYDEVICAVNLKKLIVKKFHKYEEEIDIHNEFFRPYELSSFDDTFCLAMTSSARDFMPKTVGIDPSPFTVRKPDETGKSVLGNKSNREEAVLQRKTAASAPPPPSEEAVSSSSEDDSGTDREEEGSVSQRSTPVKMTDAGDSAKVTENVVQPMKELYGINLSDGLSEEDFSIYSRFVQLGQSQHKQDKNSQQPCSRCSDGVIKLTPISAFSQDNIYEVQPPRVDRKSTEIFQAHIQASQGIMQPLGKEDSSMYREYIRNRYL
UniProt Q6P4F2: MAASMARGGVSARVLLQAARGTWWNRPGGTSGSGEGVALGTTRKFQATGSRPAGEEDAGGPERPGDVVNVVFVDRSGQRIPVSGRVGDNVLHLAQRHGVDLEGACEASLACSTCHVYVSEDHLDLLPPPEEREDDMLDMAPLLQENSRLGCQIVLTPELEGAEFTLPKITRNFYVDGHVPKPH
UniProt Q6UN15: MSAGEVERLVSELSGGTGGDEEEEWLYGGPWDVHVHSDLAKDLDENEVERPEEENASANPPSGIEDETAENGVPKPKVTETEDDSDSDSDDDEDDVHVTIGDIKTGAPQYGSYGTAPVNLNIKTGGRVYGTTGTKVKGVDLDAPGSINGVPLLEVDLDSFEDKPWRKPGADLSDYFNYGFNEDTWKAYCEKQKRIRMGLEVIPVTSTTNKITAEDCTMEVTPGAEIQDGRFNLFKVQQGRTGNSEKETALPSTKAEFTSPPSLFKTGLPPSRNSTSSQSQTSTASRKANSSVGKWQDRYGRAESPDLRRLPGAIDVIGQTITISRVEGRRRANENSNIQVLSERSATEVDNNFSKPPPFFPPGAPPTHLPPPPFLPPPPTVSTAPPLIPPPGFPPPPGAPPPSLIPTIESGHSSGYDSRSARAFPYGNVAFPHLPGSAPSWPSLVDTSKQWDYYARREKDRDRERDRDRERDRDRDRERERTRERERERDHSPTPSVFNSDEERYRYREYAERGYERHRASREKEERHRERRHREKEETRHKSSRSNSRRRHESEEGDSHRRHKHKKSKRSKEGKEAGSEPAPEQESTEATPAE
UniProt Q9UK22: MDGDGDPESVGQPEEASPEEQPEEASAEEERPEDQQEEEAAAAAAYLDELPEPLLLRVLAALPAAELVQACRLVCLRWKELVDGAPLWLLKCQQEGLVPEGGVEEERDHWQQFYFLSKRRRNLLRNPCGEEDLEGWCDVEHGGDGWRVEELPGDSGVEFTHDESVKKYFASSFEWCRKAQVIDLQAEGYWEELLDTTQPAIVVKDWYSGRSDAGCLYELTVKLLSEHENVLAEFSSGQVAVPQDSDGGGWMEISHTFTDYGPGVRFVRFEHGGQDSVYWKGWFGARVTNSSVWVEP
UniProt Q9H479: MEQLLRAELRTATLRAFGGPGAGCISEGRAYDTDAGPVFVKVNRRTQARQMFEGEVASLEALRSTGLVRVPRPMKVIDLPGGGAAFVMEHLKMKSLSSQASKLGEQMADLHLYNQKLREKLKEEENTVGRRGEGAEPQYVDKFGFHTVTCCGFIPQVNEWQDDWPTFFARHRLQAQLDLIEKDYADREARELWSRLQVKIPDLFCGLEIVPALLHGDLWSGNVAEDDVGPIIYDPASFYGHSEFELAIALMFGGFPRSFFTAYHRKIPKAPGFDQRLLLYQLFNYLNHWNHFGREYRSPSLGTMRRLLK
UniProt P10109: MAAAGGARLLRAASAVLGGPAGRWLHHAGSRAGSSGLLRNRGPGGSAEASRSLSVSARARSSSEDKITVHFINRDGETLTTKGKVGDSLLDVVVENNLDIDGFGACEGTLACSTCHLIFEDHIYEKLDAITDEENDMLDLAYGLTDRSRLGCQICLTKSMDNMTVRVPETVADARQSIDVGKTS
UniProt Q02790: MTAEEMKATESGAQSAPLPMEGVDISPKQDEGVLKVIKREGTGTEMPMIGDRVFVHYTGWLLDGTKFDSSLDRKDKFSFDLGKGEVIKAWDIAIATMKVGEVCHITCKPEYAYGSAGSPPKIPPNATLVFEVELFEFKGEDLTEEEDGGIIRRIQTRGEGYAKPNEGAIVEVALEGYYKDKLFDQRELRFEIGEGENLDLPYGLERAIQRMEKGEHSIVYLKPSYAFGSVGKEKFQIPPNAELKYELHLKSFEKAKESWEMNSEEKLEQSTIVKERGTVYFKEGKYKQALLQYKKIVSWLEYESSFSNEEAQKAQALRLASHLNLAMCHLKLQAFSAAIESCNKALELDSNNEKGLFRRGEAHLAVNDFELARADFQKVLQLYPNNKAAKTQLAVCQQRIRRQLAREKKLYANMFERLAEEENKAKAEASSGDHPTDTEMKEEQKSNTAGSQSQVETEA
UniProt Q9Y613: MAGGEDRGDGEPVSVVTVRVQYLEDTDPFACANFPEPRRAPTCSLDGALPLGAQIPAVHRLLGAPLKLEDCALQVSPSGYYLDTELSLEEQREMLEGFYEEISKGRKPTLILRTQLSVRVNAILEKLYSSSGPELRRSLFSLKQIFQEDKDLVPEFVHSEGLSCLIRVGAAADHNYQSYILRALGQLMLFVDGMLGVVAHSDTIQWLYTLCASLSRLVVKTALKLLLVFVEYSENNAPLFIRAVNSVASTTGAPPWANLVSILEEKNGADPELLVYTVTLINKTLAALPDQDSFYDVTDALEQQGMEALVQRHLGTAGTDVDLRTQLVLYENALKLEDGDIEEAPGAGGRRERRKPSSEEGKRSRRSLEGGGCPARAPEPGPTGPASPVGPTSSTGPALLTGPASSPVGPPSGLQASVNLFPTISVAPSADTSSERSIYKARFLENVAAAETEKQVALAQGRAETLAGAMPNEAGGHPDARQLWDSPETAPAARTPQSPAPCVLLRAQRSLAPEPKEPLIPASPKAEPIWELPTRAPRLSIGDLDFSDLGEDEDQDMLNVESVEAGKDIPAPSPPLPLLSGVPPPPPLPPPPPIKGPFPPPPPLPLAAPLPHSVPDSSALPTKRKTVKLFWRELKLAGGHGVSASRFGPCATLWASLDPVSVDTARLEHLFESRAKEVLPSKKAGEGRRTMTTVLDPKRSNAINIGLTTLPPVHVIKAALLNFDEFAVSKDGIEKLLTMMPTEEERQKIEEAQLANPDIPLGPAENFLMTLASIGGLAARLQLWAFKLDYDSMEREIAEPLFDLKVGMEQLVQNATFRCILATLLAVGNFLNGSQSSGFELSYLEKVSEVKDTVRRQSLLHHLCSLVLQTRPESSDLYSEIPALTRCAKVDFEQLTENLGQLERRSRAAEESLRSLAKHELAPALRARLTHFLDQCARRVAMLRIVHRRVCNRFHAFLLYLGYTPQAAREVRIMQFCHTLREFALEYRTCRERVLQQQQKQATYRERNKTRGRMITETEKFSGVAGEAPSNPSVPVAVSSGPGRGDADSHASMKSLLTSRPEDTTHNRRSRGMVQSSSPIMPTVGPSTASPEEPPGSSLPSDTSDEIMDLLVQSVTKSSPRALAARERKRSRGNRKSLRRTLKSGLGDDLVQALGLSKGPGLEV
UniProt P07954: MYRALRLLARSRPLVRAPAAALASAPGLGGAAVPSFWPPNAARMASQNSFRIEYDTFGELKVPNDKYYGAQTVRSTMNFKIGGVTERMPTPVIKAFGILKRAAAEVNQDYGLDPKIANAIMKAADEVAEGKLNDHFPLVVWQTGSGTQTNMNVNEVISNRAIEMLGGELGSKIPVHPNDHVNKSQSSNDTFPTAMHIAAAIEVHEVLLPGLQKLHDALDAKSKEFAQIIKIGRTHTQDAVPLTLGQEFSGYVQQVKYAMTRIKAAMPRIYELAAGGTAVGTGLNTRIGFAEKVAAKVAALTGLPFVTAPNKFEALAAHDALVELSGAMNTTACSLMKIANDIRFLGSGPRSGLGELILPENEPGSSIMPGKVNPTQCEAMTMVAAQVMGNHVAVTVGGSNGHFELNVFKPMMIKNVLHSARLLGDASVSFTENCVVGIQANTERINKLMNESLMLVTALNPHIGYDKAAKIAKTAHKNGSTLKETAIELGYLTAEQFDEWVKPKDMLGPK
UniProt Q9UKT4: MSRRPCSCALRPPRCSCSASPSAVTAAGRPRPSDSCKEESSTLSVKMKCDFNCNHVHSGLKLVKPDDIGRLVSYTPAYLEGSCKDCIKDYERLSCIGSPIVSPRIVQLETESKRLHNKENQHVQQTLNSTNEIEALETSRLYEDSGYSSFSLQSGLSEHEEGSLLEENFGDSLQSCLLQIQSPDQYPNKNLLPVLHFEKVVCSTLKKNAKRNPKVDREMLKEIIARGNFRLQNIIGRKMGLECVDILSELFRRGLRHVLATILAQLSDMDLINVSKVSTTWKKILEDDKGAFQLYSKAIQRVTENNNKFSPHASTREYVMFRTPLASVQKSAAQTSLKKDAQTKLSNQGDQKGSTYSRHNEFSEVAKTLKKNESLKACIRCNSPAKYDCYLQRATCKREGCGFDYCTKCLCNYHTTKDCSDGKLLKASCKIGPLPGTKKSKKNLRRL
UniProt Q96AC1: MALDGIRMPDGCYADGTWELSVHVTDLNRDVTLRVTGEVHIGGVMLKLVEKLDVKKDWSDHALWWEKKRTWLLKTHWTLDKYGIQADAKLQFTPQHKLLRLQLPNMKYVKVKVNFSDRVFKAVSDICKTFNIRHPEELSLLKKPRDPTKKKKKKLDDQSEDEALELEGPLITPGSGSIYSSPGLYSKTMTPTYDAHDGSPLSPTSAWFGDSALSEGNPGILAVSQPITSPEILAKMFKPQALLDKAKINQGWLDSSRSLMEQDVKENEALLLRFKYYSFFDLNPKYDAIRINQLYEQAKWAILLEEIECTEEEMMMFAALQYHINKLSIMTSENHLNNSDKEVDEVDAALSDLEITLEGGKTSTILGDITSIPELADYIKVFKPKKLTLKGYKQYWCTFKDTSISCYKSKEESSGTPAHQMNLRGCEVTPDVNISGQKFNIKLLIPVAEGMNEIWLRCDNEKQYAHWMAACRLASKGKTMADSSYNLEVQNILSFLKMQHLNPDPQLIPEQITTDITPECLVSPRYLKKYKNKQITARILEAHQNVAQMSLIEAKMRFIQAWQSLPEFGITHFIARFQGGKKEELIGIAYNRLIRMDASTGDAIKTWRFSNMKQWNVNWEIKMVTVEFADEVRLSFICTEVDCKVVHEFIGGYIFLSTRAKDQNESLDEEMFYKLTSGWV

Key:
Test in all cases: log2 fold change, soluble protein after heating vs DMSO (PISA); higher = thermal stabilisation; K562 lysate, 10 uM; active = over 0.2 and 3.5 SD of the protein, either way, in both replicates (recomputed)
lapatinib = compound: CS(=O)(=O)CCNCc1ccc(-c2ccc3ncnc(Nc4ccc(OCc5cccc(F)c5)c(Cl)c4)c3c2)o1 [lapatinib]
In short: (§1)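 Log-two fold change in thermal stability relative to solvent controls is reported from duplicates. For each sample, crude K562 extract from dounce-homogenised pellets in PBS pH 7.4 with 1 mM MgCl2, at 1 mg/mL protein, was treated with 10 μM compound for 30 min. Aliquots heated for 3 min across 48°C-58°C were pooled, brought to 0.5% NP-40 at 4°C and cleared at 21,000xg for 90 min. The supernatant was quantified by TMTpro 16plex LC-MS/MS with channel sums equalised.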

pictilisib = compound: CS(=O)(=O)N1CCN(Cc2cc3nc(-c4cccc5[nH]ncc45)nc(N4CCOCC4)c3s2)CC1 [pictilisib]
In short: as §1

crizotinib = compound: C[C@@H](Oc1cc(-c2cnn(C3CCNCC3)c2)cnc1N)c1c(Cl)ccc(F)c1Cl [crizotinib]
In short: as §1

[1] = compound: C[C@H](C1=CC=C(C=C1)C(=O)NC2=C3C=CNC3=NC=C2)N
In short: as §1

duvelisib = compound: C[C@H](Nc1ncnc2nc[nH]c12)c1cc2cccc(Cl)c2c(=O)n1-c1ccccc1 [duvelisib]
In short: as §1

gandotinib = compound: Cc1cc(Nc2cc(CN3CCOCC3)c3nc(C)c(Cc4ccc(Cl)cc4F)n3n2)n[nH]1 [gandotinib]
In short: as §1

tozasertib = compound: Cc1cc(Nc2cc(N3CCN(C)CC3)nc(Sc3ccc(NC(=O)C4CC4)cc3)n2)n[nH]1 [tozasertib]
In short: as §1

doramapimod = compound: Cc1ccc(-n2nc(C(C)(C)C)cc2NC(=O)Nc2ccc(OCCN3CCOCC3)c3ccccc23)cc1 [doramapimod]
In short: as §1

bafetinib = compound: Cc1ccc(NC(=O)c2ccc(CN3CC[C@H](N(C)C)C3)c(C(F)(F)F)c2)cc1Nc1nccc(-c2cncnc2)n1 [bafetinib]
In short: as §1

[2] = compound: Cc1cccc(CC(=O)N2CCc3c2ccc(-c2cn(C)c4ncnc(N)c24)c3F)n1
In short: as §1

nilotinib = compound: Cc1cn(-c2cc(NC(=O)c3ccc(C)c(Nc4nccc(-c5cccnc5)n4)c3)cc(C(F)(F)F)c2)cn1 [nilotinib]
In short: as §1

[3] = compound: Cc1nc(Nc2n[nH]c3c2CN(C(=O)N[C@H](CN(C)C)c2ccccc2)C3(C)C)c2sccc2n1
In short: as §1

dasatinib = compound: Cc1nc(Nc2ncc(C(=O)Nc3c(C)cccc3Cl)s2)cc(N2CCN(CCO)CC2)n1 [dasatinib]
In short: as §1

[4] = compound: Cc1ncc(-c2ccnc(Nc3ccc(S(C)(=O)=O)cc3)n2)n1C(C)C
In short: as §1

[5] = compound: Cn1cc(-c2ccc3c(c2)CCN3C(=O)Cc2cccc(C(F)(F)F)c2)c2c(N)ncnc21
In short: as §1

quisinostat = compound: Cn1cc(CNCC2CCN(c3ncc(C(=O)NO)cn3)CC2)c2ccccc21 [quisinostat]
In short: as §1

tipifarnib = compound: Cn1cncc1[C@@](N)(c1ccc(Cl)cc1)c1ccc2c(c1)c(-c1cccc(Cl)c1)cc(=O)n2C [tipifarnib]
In short: as §1

[6] = compound: NC(=O)Nc1cc(-c2cccc(F)c2)sc1C(=O)N[C@H]1CCCNC1
In short: as §1

[7] = compound: NC(=O)c1cnc(N[C@@H]2CCCC[C@@H]2N)nc1Nc1cccc(-n2nccn2)c1
In short: as §1

[8] = compound: NC1(c2ccc(-c3nc4ccn5c(=O)[nH]nc5c4cc3-c3ccccc3)cc2)CCC1
In short: as §1

Measured: log2 fold change

FCGR2A (UniProt P12318)
inactive: lapatinib 0.004 | pictilisib -0.004 | crizotinib 0.039 | [1] -0.038 | duvelisib 0.01 | gandotinib 0.046 | tozasertib 0.019 | doramapimod -0.011 | bafetinib -0.014 | [2] 0.017 | nilotinib 0.035 | [3] -0.044 | dasatinib -0.005 | [4] 0.015 | [5] 0.033 | quisinostat -0.043 | tipifarnib 0.035 | [6] -0.002 | [7] 0.006 | [8] 0.038

FN3KRP (UniProt Q9HA64)
inactive: lapatinib -0.017 | pictilisib -0.048 | crizotinib 0 | [1] 0.011 | duvelisib 0.006 | gandotinib 0.002 | tozasertib -0.014 | doramapimod 0.014 | bafetinib 0.005 | [2] 0.006 | nilotinib -0.021 | [3] 0.014 | dasatinib -0.031 | [4] 0.06 | [5] -0.002 | quisinostat -0.063 | tipifarnib 0.019 | [6] 0.016 | [7] -0.028 | [8] 0.008

FIG4 (UniProt Q92562)
inactive: lapatinib -0.065 | pictilisib 0.12 | crizotinib -0.016 | [1] 0.039 | duvelisib -0.023 | gandotinib -0.099 | tozasertib -0.112 | doramapimod -0.067 | bafetinib -0.09 | [2] 0.058 | nilotinib -0.02 | [3] 0.144 | dasatinib -0.007 | [4] 0.08 | [5] 0.145 | quisinostat 0.077 | tipifarnib -0.038 | [6] 0.013 | [7] -0.066 | [8] 0.06

FDX2 (UniProt Q6P4F2)
inactive: lapatinib 0.047 | pictilisib -0.169 | crizotinib 0.057 | [1] -0.142 | duvelisib 0.188 | gandotinib 0.014 | tozasertib -0.15 | doramapimod 0.014 | bafetinib 0 | [2] 0.112 | nilotinib 0.135 | [3] -0.025 | dasatinib 0.058 | [4] -0.067 | [5] -0.006 | quisinostat -0.068 | tipifarnib 0.096 | [6] 0.05 | [7] -0.068 | [8] 0.052

FIP1L1 (UniProt Q6UN15)
inactive: lapatinib 0.011 | pictilisib -0.01 | crizotinib 0.06 | [1] 0.036 | duvelisib -0.043 | gandotinib -0.034 | tozasertib 0.001 | doramapimod 0.024 | bafetinib 0.016 | [2] 0.011 | nilotinib -0.019 | [3] -0.004 | dasatinib -0.022 | [4] 0.014 | [5] -0.015 | quisinostat 0.02 | tipifarnib -0.057 | [6] 0.002 | [7] 0.009 | [8] 0.029

FBXO2 (UniProt Q9UK22)
inactive: lapatinib -0.022 | pictilisib 0.008 | crizotinib -0.063 | [1] -0.096 | duvelisib 0.098 | gandotinib -0.017 | tozasertib -0.11 | doramapimod -0.072 | bafetinib 0.036 | [2] 0.458 | nilotinib 0.036 | [3] -0.014 | dasatinib 0.015 | [4] -0.094 | [5] 0.025 | quisinostat 0.044 | tipifarnib -0.027 | [6] -0.018 | [7] -0.043 | [8] 0.045

FN3K (UniProt Q9H479)
inactive: lapatinib -0.007 | pictilisib 0.004 | crizotinib 0.03 | [1] 0.072 | duvelisib -0.006 | gandotinib -0.035 | tozasertib -0.017 | doramapimod -0.037 | bafetinib 0.027 | [2] -0.059 | nilotinib 0.016 | [3] -0.019 | dasatinib 0.01 | [4] -0.02 | [5] -0.017 | quisinostat -0.06 | tipifarnib 0.008 | [6] 0.004 | [7] 0.005 | [8] -0.015

2 successive records out of the list so far, for reference:
FN3KRP (UniProt Q9HA64)
inactive: lapatinib -0.017 | pictilisib -0.048 | crizotinib 0 | [1] 0.011 | duvelisib 0.006 | gandotinib 0.002 | tozasertib -0.014 | doramapimod 0.014 | bafetinib 0.005 | [2] 0.006 | nilotinib -0.021 | [3] 0.014 | dasatinib -0.031 | [4] 0.06 | [5] -0.002 | quisinostat -0.063 | tipifarnib 0.019 | [6] 0.016 | [7] -0.028 | [8] 0.008

FIG4 (UniProt Q92562)
inactive: lapatinib -0.065 | pictilisib 0.12 | crizotinib -0.016 | [1] 0.039 | duvelisib -0.023 | gandotinib -0.099 | tozasertib -0.112 | doramapimod -0.067 | bafetinib -0.09 | [2] 0.058 | nilotinib -0.02 | [3] 0.144 | dasatinib -0.007 | [4] 0.08 | [5] 0.145 | quisinostat 0.077 | tipifarnib -0.038 | [6] 0.013 | [7] -0.066 | [8] 0.06

Later entries:

FDX1 (UniProt P10109)
inactive: lapatinib 0.047 | pictilisib 0.016 | crizotinib -0.001 | [1] 0.014 | duvelisib -0.045 | gandotinib 0.027 | tozasertib -0.01 | doramapimod 0.036 | bafetinib -0.051 | [2] 0.046 | nilotinib -0.043 | [3] -0.043 | dasatinib 0.044 | [4] -0.032 | [5] 0.043 | quisinostat 0.03 | tipifarnib 0.003 | [6] -0.03 | [7] 0.009 | [8] 0.076

FKBP4 (UniProt Q02790)
inactive: lapatinib -0.001 | pictilisib 0.007 | crizotinib 0.04 | [1] -0.001 | duvelisib 0.012 | gandotinib -0.01 | tozasertib -0.009 | doramapimod -0.017 | bafetinib -0.001 | [2] -0.03 | nilotinib 0.016 | [3] 0.009 | dasatinib 0.002 | [4] 0.004 | [5] -0.014 | quisinostat 0.044 | tipifarnib 0.03 | [6] -0.001 | [7] -0.019 | [8] 0.038

FHOD1 (UniProt Q9Y613)
inactive: lapatinib -0.018 | pictilisib -0.011 | crizotinib -0.014 | [1] 0.017 | duvelisib -0.023 | gandotinib -0.141 | tozasertib 0.008 | doramapimod 0.045 | bafetinib -0.063 | [2] 0.035 | nilotinib 0.005 | [3] 0.017 | dasatinib -0.05 | [4] -0.007 | [5] 0.002 | quisinostat 0.017 | tipifarnib -0.017 | [6] 0.039 | [7] 0.014 | [8] 0.023

FH (UniProt P07954)
inactive: lapatinib -0.009 | pictilisib -0.001 | crizotinib 0.016 | [1] 0.049 | duvelisib 0.001 | gandotinib -0.039 | tozasertib -0.001 | doramapimod -0.003 | bafetinib 0.014 | [2] -0.041 | nilotinib -0.009 | [3] -0.019 | dasatinib -0.011 | [4] -0.001 | [5] 0.008 | quisinostat 0.031 | tipifarnib 0.038 | [6] 0 | [7] -0.001 | [8] 0.01

FNBP1 (UniProt Q96RU3)
inactive: lapatinib -0.028 | pictilisib 0.078 | crizotinib -0.027 | [1] -0.048 | duvelisib -0.035 | gandotinib -0.041 | tozasertib 0.164 | doramapimod 0.011 | bafetinib -0.01 | [2] 0.055 | nilotinib -0.054 | [3] 0.075 | dasatinib 0.029 | [4] 0.096 | [5] 0.051 | quisinostat -0.009 | tipifarnib -0.029 | [6] 0.054 | [7] 0.04 | [8] -0.074

FLNA (UniProt P21333)
inactive: lapatinib -0.02 | pictilisib -0.008 | crizotinib -0.009 | [1] -0.082 | duvelisib -0.006 | gandotinib 0.025 | tozasertib -0.016 | doramapimod -0.009 | bafetinib 0.014 | [2] 0.031 | nilotinib 0.004 | [3] 0.001 | dasatinib -0.029 | [4] 0.016 | [5] -0.049 | quisinostat 0.009 | tipifarnib 0.006 | [6] -0.017 | [7] -0.015 | [8] 0.015

FBXO5 (UniProt Q9UKT4)
inactive: lapatinib -0.195 | pictilisib -0.001 | crizotinib 0.013 | [1] 0.034 | duvelisib -0.025 | gandotinib -0.028 | tozasertib 0.047 | doramapimod 0.018 | bafetinib 0.025 | [2] -0.002 | nilotinib -0.047 | [3] -0.002 | dasatinib 0.056 | [4] 0.008 | [5] 0.022 | quisinostat -0.039 | tipifarnib -0.026 | [6] 0 | [7] 0.147 | [8] -0.073

FASTKD2 (UniProt Q9NYY8)
inactive: lapatinib -0.028 | pictilisib -0.001 | crizotinib -0.032 | [1] -0.067 | duvelisib 0.026 | gandotinib -0.049 | tozasertib -0.013 | doramapimod 0.028 | bafetinib -0.028 | [2] 0.05 | nilotinib -0.019 | [3] -0.006 | dasatinib -0.006 | [4] 0.016 | [5] -0.026 | quisinostat -0.027 | tipifarnib -0.02 | [6] 0.049 | [7] 0.027 | [8] 0.015

FERMT2 isoform 3 (UniProt Q96AC1)
inactive: lapatinib 0.023 | pictilisib -0.08 | crizotinib -0.011 | [1] -0.007 | duvelisib -0.054 | gandotinib 0.073 | tozasertib 0.033 | doramapimod -0.003 | bafetinib 0.029 | [2] 0.001 | nilotinib 0.124 | [3] -0.044 | dasatinib 0.118 | [4] 0.085 | [5] -0.005 | quisinostat -0.034 | tipifarnib 0.085 | [6] 0.005 | [7] 0.02 | [8] 0.031
